Laboratory results: PubChem BioAssay AID652243 (Drosophila RNAi Screening Center, 2013)

Aim: 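Knock-downs that decrease or increase androgen receptor reporter signal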 (primary screen)
Cell system: Drosophila S2R+ cells
Knock-down reagent: long dsRNA against Drosophila genes
Time to read-out: 72 h (48 h, then 24 h hormone)
Treatment: synthetic androgen R1881 at 10 nM for 24 h
Read-out: 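Per-well raw luminescence of the androgen-driven firefly reporter and of the Renilla control, two replicates each, without normalisation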
Direction: firefly reporter light: higher = more light from androgen-responsive reporter; Renilla control light: higher = more constitutive control signal (cell number, transfection)
Active means: 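Hit when the log firefly-to-Renilla ratio dropped or increased by a fixed fold versus the mean of GFP or LacZ controls across duplicate plates; lowering cut given as 1.5 and as 3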
Calls: active = hit: reporter lowered or raised; inactive = no hit
In all, the deposit lists about 24,000 reagents; this is an unselected part of those with a known target gene and a result. Over the whole deposit, 246 (1%) are marked active. 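Plates not normalised; calls are printed but the firefly/Renilla ratio behind them is not deposited; fold cut for lowering reported inconsistently.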 Raw values vary from plate to plate and are shown uncorrected. The numbers tell different reagents against one gene apart. A plus sign joins genes that one reagent is predicted to hit. No sequences are given here. Not stated in the record: the amount of reagent.

gene	dsRNA no.	firefly reporter light, replicate 1	firefly reporter light, replicate 2	Renilla control light, replicate 1	Renilla control light, replicate 2	activity call
CG11570	1	2.41e5	2.79e5	2.37e6	1.63e6	inactive
alphaCOP	1	6.20e5	6.38e5	1.04e6	1.09e6	inactive
CG5783	1	2.20e5	2.82e5	2.37e6	2.19e6	inactive
Ass + CG31286	1	70513	75507	1.70e6	1.64e6	inactive
Crag	1	92972	89918	6.54e5	7.06e5	inactive
beat-IV	1	48781	54831	5.01e5	6.32e5	inactive
beat-IV	2	2.23e5	1.96e5	2.35e6	2.26e6	inactive
CG33476	1	9.06e5	1.23e6	1.60e6	2.51e6	inactive
CG4757	1	1.67e5	1.76e5	1.98e6	2.25e6	inactive
CG9067	1	3.02e5	2.43e5	2.36e6	1.70e6	inactive
CG42307 + mus312	1	2.10e5	2.49e5	2.84e6	3.16e6	inactive
CG42307 + mus312	2	4.18e5	4.36e5	4.81e5	5.50e5	inactive
SCCRO4	1	1.00e5	1.16e5	2.18e6	2.27e6	inactive
trem	1	2.30e5	1.40e5	2.35e6	2.11e6	inactive
CG3526	1	3.85e5	4.31e5	2.96e5	2.43e5	inactive
CG3526	2	4.25e5	3.48e5	4.59e6	3.80e6	inactive
CG3526	3	7.83e5	7.24e5	1.27e6	1.44e6	inactive
CG18789	1	2.20e5	2.92e5	1.85e6	2.37e6	inactive
ckd	1	1.58e5	2.19e5	2.03e6	2.92e6	inactive
JMJD6	1	41714	30901	2.31e5	3.11e5	inactive
JMJD6	2	2.58e5	2.22e5	4.64e5	4.07e5	inactive
pad	1	1.54e5	89578	2.71e6	2.70e6	inactive
pad	2	1.94e5	2.16e5	8.35e5	5.49e5	inactive
Bdp1	1	8.10e5	1.30e6	1.79e6	1.79e6	inactive
Bdp1	2	3.79e5	3.82e5	8.32e5	9.44e5	inactive
tutl	1	60035	51776	4.62e5	6.67e5	inactive
tutl	2	1.05e5	1.04e5	7.90e5	8.13e5	inactive
tutl	3	66058	42550	5.94e5	4.33e5	inactive
tutl	4	2.32e5	2.01e5	4.74e5	6.73e5	inactive
Dhfr	1	2.37e5	1.91e5	2.73e6	2.71e6	inactive
Dhfr	2	7.38e5	5.36e5	1.18e6	1.09e6	inactive
CG13502	1	2.12e5	2.36e5	1.50e6	1.90e6	inactive
CG13502	2	3.24e5	5.04e5	7.13e5	7.44e5	inactive
senju	1	2.03e5	2.18e5	2.18e6	1.86e6	inactive
LRR	1	2.52e5	2.59e5	1.89e6	1.31e6	inactive
LRR	2	8.84e5	1.16e6	8.09e5	8.36e5	inactive
Saf6	1	7.38e5	8.97e5	2.63e6	2.42e6	inactive
Ak2	1	2.98e5	2.56e5	1.80e6	1.62e6	inactive
Ak2	2					inactive
CG31206	1	4.03e5	2.38e5	34933	1.53e5	inactive

Ordered by “firefly reporter light, replicate 1” (low to high): 4 of the entries above.
gene	dsRNA no.	firefly reporter light, replicate 1	firefly reporter light, replicate 2	Renilla control light, replicate 1	Renilla control light, replicate 2	activity call
senju	1	2.03e5	2.18e5	2.18e6	1.86e6	inactive
LRR	1	2.52e5	2.59e5	1.89e6	1.31e6	inactive
CG13502	2	3.24e5	5.04e5	7.13e5	7.44e5	inactive
LRR	2	8.84e5	1.16e6	8.09e5	8.36e5	inactive
